Source: PubChem BioAssay AID504444 (National Center for Advancing Translational Sciences (NCATS), 2011)
Among all 360,000 compounds or so, about 7,500 (2.1%) were called active. Inconclusive results, whose numbers are uncertain, are shown with a selection of clear calls. The call rests on the fitted dose curve; in most records, active means well fitted inhibition curve with a large enough effect; inconclusive means small, poorly fitted or top-dose-only effect, or effect the other way; inactive means flat fitted curve, though single readings scatter. Potencies of inconclusive entries are doubtful fits and often do not repeat.

Test: Nrf2 qHTS screen for inhibitors; further: nearly all actives have a fitted effect of over 60% in size
Conditions: A549 ARE-Fluc reporter, luciferase luminescence, 18-24 h; activity change, negative = inhibition: at 46 µM (top of the series)
In short: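 In this cell-based qHTS, ARE-driven firefly luciferase in A549 cells reports Nrf2 activity; the luminescent signal after BugLite lysis is the measured value, with a prior CellTiter-Fluor read for cell health.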
On the % scale 0 is the no-effect control and ±100 the full control effect; potency means the concentration at half of the fitted maximal effect.

Row | Structure (SMILES) | activity change, negative = inhibition | Potency
1 | CC(C)(C)OC(=O)N1CCC[C@H]1c1nnc(SCc2ccc(Cl)cc2)o1 | inactive: -10.4% | –
2 | N#CC(C#N)=NNc1ccc(S(=O)(=O)N2CCCC2)cc1 | inactive: -19.1% | –
3 | O=[N+]([O-])c1ccc(-c2ccc(/C=N/O)o2)cc1 | – | inconclusive: 20.6 µM [activator, single point]
4 | Cc1cc(C(=O)Nc2cccnc2)cs1 | – | inconclusive: 3.66 µM [falling, single point]
5 | Cc1cc(Cl)c(S(=O)(=O)N2CCSCC2)cc1OCC(=O)NC1CCCCC1 | – | active: 6.51 µM
6 | COC(=O)CCCNC(=O)CCc1nnc(-c2ccc(-c3ccccc3)cc2)o1 | – | inconclusive: 0.0731 µM [falling, full curve, poor fit]
7 | CC1(C)C=Cc2c(ccc3c2OC[C@@H](c2ccc(O)cc2O)C3)O1 | – | inconclusive: 18.4 µM [activator, single point]
8 | Cc1cc(C)c(-n2c(C)cc(/C=C3/NC(=O)NC3=O)c2C)c(C)c1 | – | inconclusive: 8.2 µM [falling, full curve, poor fit]
9 | COc1ccc(-c2c(-c3ccccc3OC)sc3ccccc23)cc1C=O | – | inconclusive: 16.4 µM [activator, single point]
10 | Cn1cc(/C=N/NC(=O)c2ccccc2O)c2ccccc21 | – | inconclusive: 11.6 µM [activator, partial curve, poor fit]
11 | Cc1cccc(Nc2nc(N)c([N+](=O)[O-])c(NCc3ccccc3)n2)c1 | – | inconclusive: 16.4 µM [falling, single point]
12 | COc1cc(C(=O)Nc2nnc(Cc3ccccc3)s2)cc(OC)c1OC | – | inconclusive: 25.9 µM [falling, partial curve, poor fit]
13 | CC1Cc2cc(S(=O)(=O)CCC(=O)Nc3ccc(Cl)cc3F)ccc2N1C(=O)C1CC1 (stereo not given) | – | active: 13 µM
14 | Cc1c(OCC(=O)N(C)C)ccc2c3c(c(=O)oc12)CCCCC3 | – | inconclusive: 18.4 µM [falling, single point]
15 | CCN(CC)C(=O)c1cccc(NC(=O)CC23CC4CC(CC(C4)C2)C3)c1 | – | inconclusive: 32.6 µM [falling, partial curve, poor fit]
16 | Nc1c(C(=O)N/N=C/c2cccnc2)oc2nc(-c3ccccc3)cc(-c3ccco3)c12 | inactive: -29.2% | –
17 | CCOc1ccc(CN(C(=O)/C=C/c2ccco2)C2CCS(=O)(=O)C2)cc1 (stereo not given) | inactive: 0.433% | –
18 | CC(C)(C)c1ccc(-n2ncc3c2CCCC3NC(=O)CN2CCOC2=O)cc1 (stereo not given) | – | inconclusive: 11.6 µM [falling, partial curve, poor fit]
19 | COc1ccc(NC(=O)c2[nH]ncc2[N+](=O)[O-])cc1 | – | inconclusive: 16.4 µM [activator, single point]
20 | O=C(O)CCN1C(=O)c2ccc(NC(=O)CSc3ccccc3)cc2C1=O | inactive: -1.11% | –
21 | Cc1cc(NC(=O)N2CCC(CN3CCOCC3)CC2)ccc1Br | inactive: -3.04% | –
22 | CCN(CC)S(=O)(=O)c1cccc(NC(=O)C2SC(=Nc3ccc(C)cc3C)C(C(=O)NC(C)COC)=C2N)c1 (stereo not given) | – | active: 20.6 µM
23 | COc1ccc(/C=C/c2ccccc2)cc1C1C2C=CCC(C)C2C(=O)N1Cc1ccccc1 (stereo not given) | – | inconclusive: 29.1 µM [falling, partial curve, poor fit]
24 | O=C(NCC1OCCc2ccccc21)c1ccc(NC(=O)c2cccc(Br)c2)cc1 (stereo not given) | – | inconclusive: 0.0164 µM [falling, full curve, poor fit]

Already shown: 20 of the compounds above.
Row | Structure (SMILES) | activity change, negative = inhibition | Potency
1 | CC(C)(C)OC(=O)N1CCC[C@H]1c1nnc(SCc2ccc(Cl)cc2)o1 | inactive: -10.4% | –
2 | N#CC(C#N)=NNc1ccc(S(=O)(=O)N2CCCC2)cc1 | inactive: -19.1% | –
3 | O=[N+]([O-])c1ccc(-c2ccc(/C=N/O)o2)cc1 | – | inconclusive: 20.6 µM [activator, single point]
4 | Cc1cc(C(=O)Nc2cccnc2)cs1 | – | inconclusive: 3.66 µM [falling, single point]
5 | Cc1cc(Cl)c(S(=O)(=O)N2CCSCC2)cc1OCC(=O)NC1CCCCC1 | – | active: 6.51 µM
6 | COC(=O)CCCNC(=O)CCc1nnc(-c2ccc(-c3ccccc3)cc2)o1 | – | inconclusive: 0.0731 µM [falling, full curve, poor fit]
7 | CC1(C)C=Cc2c(ccc3c2OC[C@@H](c2ccc(O)cc2O)C3)O1 | – | inconclusive: 18.4 µM [activator, single point]
8 | Cc1cc(C)c(-n2c(C)cc(/C=C3/NC(=O)NC3=O)c2C)c(C)c1 | – | inconclusive: 8.2 µM [falling, full curve, poor fit]
9 | COc1ccc(-c2c(-c3ccccc3OC)sc3ccccc23)cc1C=O | – | inconclusive: 16.4 µM [activator, single point]
10 | Cn1cc(/C=N/NC(=O)c2ccccc2O)c2ccccc21 | – | inconclusive: 11.6 µM [activator, partial curve, poor fit]
11 | Cc1cccc(Nc2nc(N)c([N+](=O)[O-])c(NCc3ccccc3)n2)c1 | – | inconclusive: 16.4 µM [falling, single point]
12 | COc1cc(C(=O)Nc2nnc(Cc3ccccc3)s2)cc(OC)c1OC | – | inconclusive: 25.9 µM [falling, partial curve, poor fit]
13 | CC1Cc2cc(S(=O)(=O)CCC(=O)Nc3ccc(Cl)cc3F)ccc2N1C(=O)C1CC1 (stereo not given) | – | active: 13 µM
14 | Cc1c(OCC(=O)N(C)C)ccc2c3c(c(=O)oc12)CCCCC3 | – | inconclusive: 18.4 µM [falling, single point]
15 | CCN(CC)C(=O)c1cccc(NC(=O)CC23CC4CC(CC(C4)C2)C3)c1 | – | inconclusive: 32.6 µM [falling, partial curve, poor fit]
16 | Nc1c(C(=O)N/N=C/c2cccnc2)oc2nc(-c3ccccc3)cc(-c3ccco3)c12 | inactive: -29.2% | –
17 | CCOc1ccc(CN(C(=O)/C=C/c2ccco2)C2CCS(=O)(=O)C2)cc1 (stereo not given) | inactive: 0.433% | –
18 | CC(C)(C)c1ccc(-n2ncc3c2CCCC3NC(=O)CN2CCOC2=O)cc1 (stereo not given) | – | inconclusive: 11.6 µM [falling, partial curve, poor fit]
19 | COc1ccc(NC(=O)c2[nH]ncc2[N+](=O)[O-])cc1 | – | inconclusive: 16.4 µM [activator, single point]
20 | O=C(O)CCN1C(=O)c2ccc(NC(=O)CSc3ccccc3)cc2C1=O | inactive: -1.11% | –

(next part)

Row | Structure (SMILES) | activity change, negative = inhibition | Potency
25 | c1ccc2oc(C3=NNC(=NC4CC4)SC3)cc2c1 | inactive: -22.8% | –
26 | COc1ccc(NS(=O)(=O)c2ccc(N3CCOCC3)c(NC(=O)c3ccccc3Cl)c2)cc1 | inactive: 8.78% | –
27 | COc1cccc(-c2nc3c(c(C)nn3-c3ccccc3)c3cc(OC)c(OC)cc23)c1 | inactive: 5.97% | –
28 | CCCCn1c(N)c(N(CCOC)C(=O)COC(=O)COc2ccccc2C#N)c(=O)[nH]c1=O | inactive: -1.72% | –
29 | Cc1noc(NS(=O)(=O)c2ccc(NS(=O)(=O)c3ccc(Cl)cc3)cc2)c1C | inactive: 0.44% | –
30 | O=C(Nc1ccc(S(=O)(=O)NCc2cccnc2)cc1)c1ccccc1Cl | – | inconclusive: 23.1 µM [falling, partial curve]
31 | COc1ccc(C(=O)NC(=S)NCCO)cc1Br | – | inconclusive: 23.1 µM [activator, single point]
32 | O=C(/C=C/c1c(F)cccc1Cl)NCc1ccco1 | inactive: 24.1% | –
33 | Cc1ccc2[nH]c(=O)c(CN(CCCN3CCOCC3)C(=O)NC3CCCCC3)cc2c1 | inactive: 9.43% | –
34 | COc1ccc(CCC(=O)OCC(=O)c2c(N)n(CC(C)C)c(=O)n(C)c2=O)cc1 | – | active: 23.1 µM
35 | Cc1ccc(Cn2c(C3CCCN3c3nc(-c4cc(Cl)c(N)c(Cl)c4)cs3)nc3cc(Cl)c(Cl)cc32)cc1 (stereo not given) | – | inconclusive: 14.6 µM [activator, single point]
36 | O=C(CN1CCOCC1)Nc1c2c(nc3ccccc13)N(Cc1ccccc1)CC2 | inactive: -4.33% | –
37 | CCOc1cc(/C=C/c2cc(C(=O)O)c3ccccc3n2)ccc1O | – | inconclusive: 16.4 µM [falling, partial curve, poor fit]
38 | Cc1cc(Br)ccc1OCC(=O)NNC(=O)c1cnccn1 | – | inconclusive: 29.1 µM [falling, single point]
39 | CCOC(=O)c1c(-c2ccc(-c3ccccc3)cc2)csc1NC(=O)c1cccc(N2C(=O)CCC2=O)c1 | inactive: 3.3% | –
40 | COc1cc2[nH]c(=O)n(Cc3ccccc3Cl)c(=O)c2cc1OC | – | inconclusive: 1.3 µM [falling, partial curve, poor fit]
41 | O=C(Nc1ccccc1)OCN1C(=O)c2ccccc2C1=O | – | inconclusive: 23.1 µM [activator, partial curve, poor fit]
42 | Cc1ccccc1-c1cccc([C@@H]2C[C@H]3[C@H](CON3C)CN2C(=O)CCc2ccccc2)c1 | – | inconclusive: 29.1 µM [falling, single point]
43 | CCCCn1[nH]c(-c2ccccc2)cc1=O | – | inconclusive: 29.1 µM [falling, partial curve, poor fit]
44 | O=C(O)c1ccc(N2C(=O)c3[nH]nc(-c4ccccc4)c3C2c2cccc(F)c2)cc1 (stereo not given) | inactive: -0.612% | –
45 | CCc1nc2ccccc2c(=O)n1NC(=O)c1c(O)c2ccccc2n(CC)c1=O | inactive: -82.5% | –
46 | N#CC(C#N)=Cc1cc2ccccc2nc1N1CCOCC1 | inactive: 4.82% | –
47 | COc1ccc(NC(=O)C2CCCN2S(=O)(=O)c2ccc3c(c2)CCC(=O)N3)cc1 (stereo not given) | – | inconclusive: 16.4 µM [falling, single point]
48 | O=C1C(Cc2ccccc2)Nc2ncnc(N3CCc4ccccc4C3)c2N1Cc1ccc(Cl)cc1 (stereo not given) | – | inconclusive: 29.1 µM [falling, single point]

Row | Structure (SMILES) | activity change, negative = inhibition | Potency
49 | O=C(Nc1ccc(Br)cc1)c1cccc(OC(=S)N2CCOCC2)c1 | – | active: 16.4 µM
50 | CCCCNc1c(-c2ccc(-c3ccc(C(C)=O)cc3)c(OC)c2)nc2cnccn12 | – | inconclusive: 29.1 µM [falling, single point]
51 | CCOc1ccc(-c2csc3ncn(-c4ccc(OC)cc4)c(=O)c23)cc1 | – | inconclusive: 14.6 µM [falling, partial curve, poor fit]
52 | COc1ccc(CNC(=O)CCCc2nnc3n(CCC(C)C)c(=O)c4sccc4n23)cc1 | – | inconclusive: 32.6 µM [activator, single point]
53 | Cc1oc(-c2ccccc2F)nc1CSCC(=O)NC1CCCC1 | – | active: 18.4 µM
54 | O=C(CC1CC2CCC1C2)NC1CCCCCCC1 (stereo not given) | – | inconclusive: 5.17 µM [activator, full curve]
55 | O=C(c1cc2ccccc2o1)c1cccs1 | – | inconclusive: 8.2 µM [activator, partial curve, poor fit]
56 | N=C1/C(=C/c2ccc(Br)o2)C(=O)N=C2SC(CC(=O)N3CCCC3)=NN12 | – | inconclusive: 0.731 µM [falling, partial curve, poor fit]
57 | Cc1ccc(N2C(=O)C3C4C=CC(CC4)C3C2=O)c([N+](=O)[O-])c1 (stereo not given) | – | inconclusive: 0.461 µM [falling, full curve, poor fit]
58 | COc1ccc(CCNC(=O)c2ccc3c(c2)c(C)c(C)n3Cc2ccccc2)c(OC)c1OC | – | inconclusive: 0.0046 µM [falling, full curve, poor fit]
59 | CCc1ccc(OCC(=O)NCc2ccco2)c(Br)c1 | – | inconclusive: 0.517 µM [activator, partial curve, poor fit]
60 | CCC(C)Nc1nc(-c2ccc3c(c2)NC(=O)CO3)cs1 (stereo not given) | – | inconclusive: 2.59 µM [activator, partial curve]
61 | O=C(Nc1ccccc1)N1CCN(Cc2ccc(Cl)cc2)CC1 | inactive: -0.255% | –
62 | Cc1ccc(NC(=O)C(=O)NCc2ccccn2)cc1 | – | inconclusive: 29.1 µM [activator, single point]
63 | O=C(Nc1ccc(N2CCOCC2)cc1)c1cnsn1 | – | inconclusive: 10.3 µM [falling, partial curve, poor fit]
64 | CCOc1cc2[nH]c(=S)n(Cc3ccc(C)o3)c(=O)c2cc1OCC | – | inconclusive: 32.6 µM [falling, single point]
65 | CNc1ccc(/C=C(\C#N)C(=O)Nc2ccccn2)cc1[N+](=O)[O-] | inactive: -18.7% | –
66 | Cc1ccc(-c2nnc(-c3ccc(NC(=O)c4ccco4)cc3)o2)cc1 | inactive: -0.341% | –
67 | CC1CCCCC1NC(=O)CCCCCn1c(=S)[nH]c2ccccc2c1=O (stereo not given) | – | inconclusive: 16.4 µM [falling, partial curve, poor fit]
68 | CCc1ccc(NC(=O)C(=O)c2ccccc2NC(C)=O)cc1 | inactive: -14.9% | –
69 | O=C(NC(=S)Nc1ncccn1)c1ccc(Cl)cc1Cl | – | inconclusive: 10.3 µM [activator, partial curve]
70 | CCOc1ccc(C(=O)Nc2onc3c2CCCC3)cc1 | – | inconclusive: 32.6 µM [falling, partial curve, poor fit]
